PubChem BioAssay AID1259286, Sanger Institute | 2017

Purpose: 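Kinome knock-downs lethal on their own or synergistic with anchor drugs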 (primary screen)
System: NCI-H630 human colorectal cancer cells
Knock-down reagent: siRNA pool against human genes
Conditions: anchor drugs BYL719 at 1 µM, cetuximab at 5 µg/ml or trametinib at 10 nM, or DMSO vehicle alone; exposure time not given
Measured: 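Viability relative to non-targeting pool wells, averaged over replicates, with robust z-score for knock-down alone and a synergy score for each anchor drug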
Reading the numbers: viability z-score, knock-down alone: higher = more viable cells, weaker knock-down effect
Hit rule: 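a gene is called essential when its knock-down-alone viability robust z-score is below -3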
Calls: active = essential when knocked down alone; inactive = not essential alone
Here is one part, drawn at random, of 794 reagents tested. Of all reagents, 17 (2.1%) were called active. 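Calls use knock-down alone only; synergy above 0.15 marked separately; viability seems capped at control level; exposure time not given.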 Not all columns of the deposit are shown. Not stated in the record: the amount of reagent, the time to read-out.

HIPK2 — viability z-score, knock-down alone = -0.0588; call = inactive
SKAP1 — viability z-score, knock-down alone = 0.464; call = inactive
PBK — viability z-score, knock-down alone = 0.0963; call = inactive
PGK2 — viability z-score, knock-down alone = 0.464; call = inactive
EIF2AK4 — viability z-score, knock-down alone = -2.84; call = inactive
PKN1 — viability z-score, knock-down alone = 0.464; call = inactive
EPHB4 — viability z-score, knock-down alone = 0.464; call = inactive
MYLK4 — viability z-score, knock-down alone = 0.464; call = inactive
NUAK2 — viability z-score, knock-down alone = -0.0619; call = inactive
SGK1 — viability z-score, knock-down alone = -0.232; call = inactive
CKMT1B — viability z-score, knock-down alone = 0.464; call = inactive
ASPM — viability z-score, knock-down alone = -0.437; call = inactive

Reformatted: 2 of the entries above
HIPK2
- viability z-score, knock-down alone: -0.0588
- call: inactive

SKAP1
- viability z-score, knock-down alone: 0.464
- call: inactive
